Reference: patent publication EP3231875A1
No constants are given. Whether binding was seen depends on the method and setting. Binding seen in cells or lysates may run through a third protein. Some binding calls cover weakened binding; strength is not graded here.

Sequences of proteins named here, by UniProt entry; tags and fusion partners are left off.
UniProt P51587: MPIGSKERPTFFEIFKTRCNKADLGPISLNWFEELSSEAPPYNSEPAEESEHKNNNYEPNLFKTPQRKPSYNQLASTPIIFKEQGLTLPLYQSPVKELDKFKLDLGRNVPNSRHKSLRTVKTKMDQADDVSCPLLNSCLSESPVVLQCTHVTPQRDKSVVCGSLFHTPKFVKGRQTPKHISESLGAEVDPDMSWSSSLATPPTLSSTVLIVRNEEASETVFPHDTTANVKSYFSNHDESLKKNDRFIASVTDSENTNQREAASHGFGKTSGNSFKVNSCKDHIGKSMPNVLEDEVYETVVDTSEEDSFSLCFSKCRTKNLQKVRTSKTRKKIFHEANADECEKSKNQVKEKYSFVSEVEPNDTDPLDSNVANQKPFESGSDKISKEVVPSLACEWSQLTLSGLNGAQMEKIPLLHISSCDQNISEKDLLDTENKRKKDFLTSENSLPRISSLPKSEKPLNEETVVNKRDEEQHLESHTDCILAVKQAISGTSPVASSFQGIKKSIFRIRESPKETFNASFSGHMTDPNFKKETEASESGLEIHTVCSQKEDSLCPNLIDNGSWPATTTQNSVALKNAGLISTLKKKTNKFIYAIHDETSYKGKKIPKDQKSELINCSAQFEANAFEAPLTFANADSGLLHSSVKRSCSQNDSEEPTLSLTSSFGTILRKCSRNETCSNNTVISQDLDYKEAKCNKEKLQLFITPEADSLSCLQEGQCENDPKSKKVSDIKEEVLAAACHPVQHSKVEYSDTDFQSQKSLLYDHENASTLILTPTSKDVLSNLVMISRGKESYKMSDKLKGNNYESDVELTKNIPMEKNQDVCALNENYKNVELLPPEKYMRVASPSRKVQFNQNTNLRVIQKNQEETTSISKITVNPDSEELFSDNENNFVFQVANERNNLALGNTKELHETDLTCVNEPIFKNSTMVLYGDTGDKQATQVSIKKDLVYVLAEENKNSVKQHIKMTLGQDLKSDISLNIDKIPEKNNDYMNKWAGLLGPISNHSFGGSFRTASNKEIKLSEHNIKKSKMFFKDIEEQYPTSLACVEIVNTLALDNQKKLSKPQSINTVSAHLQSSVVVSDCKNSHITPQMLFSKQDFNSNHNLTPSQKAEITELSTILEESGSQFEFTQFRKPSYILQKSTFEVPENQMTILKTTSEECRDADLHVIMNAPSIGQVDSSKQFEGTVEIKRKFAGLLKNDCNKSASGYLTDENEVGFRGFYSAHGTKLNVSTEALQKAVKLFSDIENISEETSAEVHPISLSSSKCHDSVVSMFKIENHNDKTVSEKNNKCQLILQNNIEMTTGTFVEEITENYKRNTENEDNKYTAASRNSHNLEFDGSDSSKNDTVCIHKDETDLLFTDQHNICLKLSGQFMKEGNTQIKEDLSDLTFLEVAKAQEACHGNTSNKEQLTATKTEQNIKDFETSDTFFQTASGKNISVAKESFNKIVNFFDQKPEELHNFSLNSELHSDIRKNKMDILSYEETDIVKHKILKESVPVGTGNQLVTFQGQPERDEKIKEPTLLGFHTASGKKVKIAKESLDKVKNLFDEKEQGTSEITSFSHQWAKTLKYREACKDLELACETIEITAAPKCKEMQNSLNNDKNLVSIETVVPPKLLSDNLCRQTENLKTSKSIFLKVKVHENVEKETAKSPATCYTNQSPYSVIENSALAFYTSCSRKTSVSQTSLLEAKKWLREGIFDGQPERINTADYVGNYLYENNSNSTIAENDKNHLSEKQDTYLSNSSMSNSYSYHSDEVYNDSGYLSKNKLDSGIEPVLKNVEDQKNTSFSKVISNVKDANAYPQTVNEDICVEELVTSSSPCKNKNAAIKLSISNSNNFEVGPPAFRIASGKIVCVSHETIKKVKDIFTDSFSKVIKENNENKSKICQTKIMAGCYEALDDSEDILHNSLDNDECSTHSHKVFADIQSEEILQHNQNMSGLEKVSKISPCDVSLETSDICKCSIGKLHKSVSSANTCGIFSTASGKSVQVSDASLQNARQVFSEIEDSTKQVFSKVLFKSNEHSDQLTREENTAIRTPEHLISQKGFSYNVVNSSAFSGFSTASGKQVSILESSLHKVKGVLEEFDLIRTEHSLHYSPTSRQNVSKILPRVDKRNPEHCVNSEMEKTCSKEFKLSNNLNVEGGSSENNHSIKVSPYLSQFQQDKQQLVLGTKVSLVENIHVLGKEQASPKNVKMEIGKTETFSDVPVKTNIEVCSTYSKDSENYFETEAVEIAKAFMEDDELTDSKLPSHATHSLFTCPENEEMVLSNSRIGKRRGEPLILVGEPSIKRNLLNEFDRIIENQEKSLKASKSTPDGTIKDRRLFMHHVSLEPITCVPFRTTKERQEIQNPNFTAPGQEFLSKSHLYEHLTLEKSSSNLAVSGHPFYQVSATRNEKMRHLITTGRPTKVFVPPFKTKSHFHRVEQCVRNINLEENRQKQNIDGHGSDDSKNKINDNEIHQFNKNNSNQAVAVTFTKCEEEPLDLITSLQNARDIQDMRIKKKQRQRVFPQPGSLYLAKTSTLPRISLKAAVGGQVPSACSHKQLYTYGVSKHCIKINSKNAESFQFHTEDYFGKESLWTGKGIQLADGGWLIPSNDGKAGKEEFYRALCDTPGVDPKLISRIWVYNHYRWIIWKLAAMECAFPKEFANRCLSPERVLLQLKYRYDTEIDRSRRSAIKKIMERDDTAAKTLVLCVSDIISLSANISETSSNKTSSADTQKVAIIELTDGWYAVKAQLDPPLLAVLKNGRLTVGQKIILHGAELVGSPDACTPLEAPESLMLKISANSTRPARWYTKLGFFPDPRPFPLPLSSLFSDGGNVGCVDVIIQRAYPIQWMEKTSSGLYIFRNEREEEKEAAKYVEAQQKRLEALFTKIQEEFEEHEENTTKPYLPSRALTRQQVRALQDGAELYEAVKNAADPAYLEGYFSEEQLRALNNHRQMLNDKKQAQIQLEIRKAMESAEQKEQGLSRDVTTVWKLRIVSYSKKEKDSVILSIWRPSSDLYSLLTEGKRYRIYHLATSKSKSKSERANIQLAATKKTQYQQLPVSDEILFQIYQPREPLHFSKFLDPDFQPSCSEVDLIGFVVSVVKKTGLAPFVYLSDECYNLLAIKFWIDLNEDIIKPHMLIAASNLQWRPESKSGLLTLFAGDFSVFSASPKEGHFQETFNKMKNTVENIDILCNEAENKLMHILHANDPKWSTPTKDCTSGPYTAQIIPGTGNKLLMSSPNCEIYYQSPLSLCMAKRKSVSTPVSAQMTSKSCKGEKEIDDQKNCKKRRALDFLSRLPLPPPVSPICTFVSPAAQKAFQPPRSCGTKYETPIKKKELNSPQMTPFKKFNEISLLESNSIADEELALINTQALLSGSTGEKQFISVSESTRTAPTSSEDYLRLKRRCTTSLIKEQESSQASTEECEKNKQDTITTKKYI

Experiments:
[1] = biological target: Flag-tagged BRCA2 overexpressed in HEK 293T cells (UniProt P51587); assay: co-immunoprecipitation with anti-Flag M2 from HEK 293T lysates, immunoblot
[2] = biological target: endogenous BRCA2 in HEK 293T cells (UniProt P51587); assay: title of the Figure 1 legend (yeast two-hybrid and co-immunoprecipitation)
[3] = biological target: endogenous BRCA2 in HEK 293T cells (UniProt P51587); assay: co-immunoprecipitation with anti-BRCA2 antibody from HEK 293T lysates, immunoblot

- binding [1]: binds
- binding [2]: binds
- binding [3]: binds
B1: Cyclin-Dependent Kinase 5 Regulatory Subunit Associated Protein 3 (CDK5RAP3), endogenous protein in HEK 293T cell lysates (protein, human, UniProt Q96JB5 1-506, looked up)
chain: MEDHQHVPIDIQTSKLLDWLVDRRHCSLKWQSLVLTIREKINAAIQDMPESEEIAQLLSGSYIHYFHCLRILDLLKGTEASTKNIFGRYSSQRMKDWQEIIALYEKDNTYLVELSSLLVRNVNYEIPSLKKQIAKCQQLQQEYSRKEEECQAGAAEMREQFYHSCKQYGITGENVRGELLALVKDLPSQLAEIGAAAQQSLGEAIDVYQASVGFVCESPTEQVLPMLRFVQKRGNSTVYEWRTGTEPSVVERPHLEELPEQVAEDAIDWGDFGVEAVSEGTDSGISAEAAGIDWGIFPESDSKDPGGDGIDWGDDAVALQITVLEAGTQAPEGVARGPDALTLLEYTETRNQFLDELMELEIFLAQRAVELSEEADVLSVSQFQLAPAILQGQTKEKMVTMVSVLEDLIGKLTSLQLQHLFMILASPRYVDRVTEFLQQKLKQSQLLALKKELMVQKQQEALEEQAALEPKLDLLLEKTKELQKLIEADISKRYSGRPVNLMGTSL
